Experiments:
[1] = system: serum antibodies elicited by OXY-KLH; experiment: Competition ELISA of serum from rats vaccinated with OXY-KLH
[2] = system: serum antibodies elicited by M-KLH; experiment: Competition ELISA of serum from rats vaccinated with M-KLH
Anti-OXY antibodies = experiment: Competitive ELISA of serum from animals immunized with OXY(Gly)4-KLH, OXY(Gly)4-OVA as coating antigen; assay type: binding, rat
Protocol: Because plateau values differed, IC50 values for each inhibitor were calculated based on the percentage of inhibition of the optical density of primary antibodies incubated with saline.

CN1CC[C@]23c4c5ccc(O)c4O[C@H]2[C@@H](O)C=C[C@H]3[C@H]1C5 [Morphine]
relative affinity of antiserum / cross-reactivity (in words) [1]: low relative affinity | relative affinity of antiserum / cross-reactivity (in words) [2]: high relative affinities | IC50 (Anti-OXY antibodies): 20 µM

Reference: patent US20140093525A1, “COMPOSITIONS AND METHODS OF TREATING OPIOID ADDICTION” (Minneapolis Medical Research Foundation, priority 2012, published 2014)
